The list shows a part of the results. Repeats are few or missing, and single values can be far off.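 Cells were imaged in 1,536-well plates, and nuclei stained with an antibody against cleaved PARP were counted against all DNA-stained nuclei to give the apoptosis fraction. Screening doses were chosen to leave most cells alive, and resting and induced cleaved-PARP levels differ strongly between cell lines.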
Tests used:
Assay in all cases: cleaved PARP positive nuclei fraction relative to DMSO control; melanoma cells; higher = more apoptosis
Conditions in all cases: library dose: low library concentration; 72 h
WM115 = tested on: WM115
WM1716 = tested on: WM1716
WM1745 = tested on: WM1745
WM3526 = tested on: WM3526
WM3619 = tested on: WM3619
WM451Lu = tested on: WM451Lu

SMILES | cleaved PARP positive nuclei fraction (WM115) | cleaved PARP positive nuclei fraction (WM1716) | cleaved PARP positive nuclei fraction (WM1745) | cleaved PARP positive nuclei fraction (WM3526) | cleaved PARP positive nuclei fraction (WM3619) | cleaved PARP positive nuclei fraction (WM451Lu)
N.N.[Cl][Pt][Cl] [cisplatin] + C=C(c1ccc(C(=O)O)cc1)c1cc2c(cc1C)C(C)(C)CCC2(C)C [Bexarotene] (first compound 1.6 µM, partner dose 2 µM) | 111% | 116% | 86.3% | 47.5% | 77.3% | 65.4%
Cn1cc(C2=C(c3cn(C4CCN(Cc5ccccn5)CC4)c4ccccc34)C(=O)NC2=O)c2ccccc21 [Enzastaurin] + C=CCNC1=C2C[C@@H](C)C[C@H](OC)[C@H](O)[C@@H](C)/C=C(\C)[C@H](OC(N)=O)[C@@H](OC)/C=C\C=C(/C)C(=O)NC(=CC1=O)C2=O [Tanespimycin] (first compound 0.8 µM, partner dose 0.002 µM) | 58% | 68.9% | 101% | 35.9% | 119% | 26.6%
Cn1c(=O)n(-c2ccc(C(C)(C)C#N)cc2)c2c3cc(-c4cnc5ccccc5c4)ccc3ncc21 + N.N.[Cl][Pt][Cl] [cisplatin] (first compound 0.004 µM, partner dose 1.6 µM) | 89.4% | 120% | 89.8% | 89% | 99.3% | 86.2%
C[C@]12O[C@H](C[C@]1(O)CO)n1c3ccccc3c3c4c(c5c6ccccc6n2c5c31)CNC4=O [Lestaurtinib] + CC(=O)c1c(C)c2cnc(Nc3ccc(N4CCNCC4)cn3)nc2n(C2CCCC2)c1=O [palbociclib] (first compound 0.004 µM, partner dose 0.04 µM) | 200% | 119% | 104% | 97.3% | 112% | 67%
O=C(O)c1ccc2c(c1)nc(Nc1cccc(Cl)c1)c1ccncc12 + C/C(O)=C(\C#N)C(=O)Nc1cc(Br)ccc1Br [LFM-A13] (first compound 0.4 µM, partner dose 2 µM) | 80.8% | 95.7% | 100% | 136% | 95% | 195%
N#CC[C@H](C1CCCC1)n1cc(-c2ncnc3[nH]ccc23)cn1 [ruxolitinib] + Cc1cc(SCc2sc(-c3ccc(C(F)(F)F)c(F)c3)nc2C)ccc1OCC(=O)O [GW0742] (first compound 1 µM, partner dose 2 µM) | 67.1% | 425% | 86.8% | 41% | 101% | 64.3%
Cc1cc(N2CCOCC2)cc2[nH]c(-c3c(NC[C@@H](O)c4cccc(Cl)c4)cc[nH]c3=O)nc12 + Cc1cc(SCc2sc(-c3ccc(C(F)(F)F)c(F)c3)nc2C)ccc1OCC(=O)O [GW0742] (first compound 0.2 µM, partner dose 2 µM) | 66.7% | 35.6% | 117% | 64.8% | 96.6% | 123%
Cn1cc(C2=C(c3cn(C4CCN(Cc5ccccn5)CC4)c4ccccc34)C(=O)NC2=O)c2ccccc21 [Enzastaurin] + N.N.[Cl][Pt][Cl] [cisplatin] (first compound 0.8 µM, partner dose 1.6 µM) | 114% | 113% | 110% | 50% | 188% | 47.3%
C/C(O)=C(\C#N)C(=O)Nc1cc(Br)ccc1Br + Cc1cc([N+](=O)[O-])ccc1NS(=O)(=O)c1cc(Cl)ccc1Cl [FH535] (first compound 2 µM, partner dose 1 µM) | 192% | 145% | 208% | 149% | 92.2% | 62.4%
COc1ccc(C2=N[C@@H](c3ccc(Cl)cc3)[C@@H](c3ccc(Cl)cc3)N2C(=O)N2CCNC(=O)C2)c(OC(C)C)c1 [Nutlin-3] + C/C(O)=C(\C#N)C(=O)Nc1cc(Br)ccc1Br [LFM-A13] (first compound 0.1 µM, partner dose 2 µM) | 142% | 53.7% | 92.4% | 81.9% | 93.8% | 109%
CCCCCCCCc1ccc(CCC(N)(CO)CO)cc1 [fingolimod] + O=C(Oc1ccc([N+](=O)[O-])cc1)N1CCC(C(O)(c2ccc3c(c2)OCO3)c2ccc3c(c2)OCO3)CC1 [JZL184] (first compound 2 µM, partner dose 1 µM) | 118% | 85.8% | 102% | 84.5% | 91.7% | 70.1%
O=C(Oc1ccc([N+](=O)[O-])cc1)N1CCC(C(O)(c2ccc3c(c2)OCO3)c2ccc3c(c2)OCO3)CC1 + CC(C)CCN1c2nc(Nc3cc(F)c(O)c(F)c3)ncc2N(C)C(=O)C1C [BID1870] (first compound 1 µM, partner dose 0.2 µM) | 70.7% | 98.1% | 94.6% | 142% | 73% | 113%
C[C@]12O[C@H](C[C@]1(O)CO)n1c3ccccc3c3c4c(c5c6ccccc6n2c5c31)CNC4=O [Lestaurtinib] + CC(C)(C)c1cnc(CSc2cnc(NC(=O)C3CCNCC3)s2)o1 [SNS-032] (first compound 0.004 µM, partner dose 0.01 µM) | 114% | 97.3% | 93.4% | 55.8% | 88.8% | 161%
C[C@]12O[C@H](C[C@]1(O)CO)n1c3ccccc3c3c4c(c5c6ccccc6n2c5c31)CNC4=O [Lestaurtinib] + O=C(Nc1ccccc1)c1cc([N+](=O)[O-])ccc1Cl [GW9662] (first compound 0.004 µM, partner dose 2 µM) | 26.2% | 480% | 96.7% | 60.1% | 92.9% | 57.7%
N.N.[Cl][Pt][Cl] [cisplatin] + CO[C@@H]1[C@H](N(C)C(=O)c2ccccc2)C[C@H]2O[C@]1(C)n1c3ccccc3c3c4c(c5c6ccccc6n2c5c31)C(=O)NC4 [Midostaurin] (first compound 1.6 µM, partner dose 0.08 µM) | 113% | 251% | 103% | 59.3% | 120% | 94.2%
C[C@@H](N)c1ccc(C(=O)Nc2ccnc3[nH]ccc23)cc1 + Cc1cc(SCc2sc(-c3ccc(C(F)(F)F)c(F)c3)nc2C)ccc1OCC(=O)O [GW0742] (first compound 0.4 µM, partner dose 2 µM) | 240% | 1940% | 95.1% | 214% | 392% | 76.1%
CNC(=O)c1cc(Oc2ccc(NC(=O)Nc3ccc(Cl)c(C(F)(F)F)c3)cc2)ccn1 [sorafenib] + Cc1cc(SCc2sc(-c3ccc(C(F)(F)F)c(F)c3)nc2C)ccc1OCC(=O)O [GW0742] (first compound 0.4 µM, partner dose 2 µM) | 118% | 108% | 244% | 85.2% | 85.2% | 140%
CNC(=O)c1cc(Oc2ccc(NC(=O)Nc3ccc(Cl)c(C(F)(F)F)c3)cc2)ccn1 [sorafenib] + C[As](C)SC[C@H](NC(=O)CC[C@H](N)C(=O)O)C(=O)NCC(=O)O [Darinaparsin] (first compound 0.4 µM, partner dose 0.4 µM) | 108% | 153% | 97.8% | 20% | 105% | 17.7%
Nc1ccn([C@@H]2O[C@H](CO)[C@@H](O)C2(F)F)c(=O)n1 [gemcitabine] + O=C(Oc1ccc([N+](=O)[O-])cc1)N1CCC(C(O)(c2ccc3c(c2)OCO3)c2ccc3c(c2)OCO3)CC1 [JZL184] (first compound 0.0004 µM, partner dose 1 µM) | 36% | 103% | 152% | 65.5% | 118% | 119%
N#CC[C@H](C1CCCC1)n1cc(-c2ncnc3[nH]ccc23)cn1 [ruxolitinib] + N.N.[Cl][Pt][Cl] [cisplatin] (first compound 1 µM, partner dose 1.6 µM) | 174% | 39.8% | 106% | 359% | 88.3% | 62.9%
C=C(c1ccc(C(=O)O)cc1)c1cc2c(cc1C)C(C)(C)CCC2(C)C [Bexarotene] + C/C(O)=C(\C#N)C(=O)Nc1cc(Br)ccc1Br [LFM-A13] (first compound 2 µM, partner dose 2 µM) | 139% | 128% | 92.9% | 109% | 105% | 125%
CN1CCN(c2ccc3nc(-c4c(N)c5c(F)cccc5[nH]c4=O)[nH]c3c2)CC1 [Dovitinib] + C[As](C)SC[C@H](NC(=O)CC[C@H](N)C(=O)O)C(=O)NCC(=O)O [Darinaparsin] (first compound 0.1 µM, partner dose 0.4 µM) | 128% | 60.9% | 100% | 94.9% | 93.5% | 44.1%
CN(NC(=O)CC(=O)NN(C)C(=S)c1ccccc1)C(=S)c1ccccc1 + O=C(Oc1ccc([N+](=O)[O-])cc1)N1CCC(C(O)(c2ccc3c(c2)OCO3)c2ccc3c(c2)OCO3)CC1 [JZL184] (first compound 0.006 µM, partner dose 1 µM) | 121% | 237% | 231% | 69.5% | 91.3% | 14.9%
CC[C@]1(O)C[C@H]2CN(CCc3c([nH]c4ccccc34)[C@@](C(=O)OC)(c3cc4c(cc3OC)N(C=O)[C@H]3[C@@](O)(C(=O)OC)[C@H](OC(C)=O)[C@]5(CC)C=CCN6CC[C@]43[C@@H]65)C2)C1 [vincristine] + O=C(Oc1ccc([N+](=O)[O-])cc1)N1CCC(C(O)(c2ccc3c(c2)OCO3)c2ccc3c(c2)OCO3)CC1 [JZL184] (first compound 0.0001 µM, partner dose 1 µM) | 2300% | 189% | 104% | 120% | 138% | 215%
COc1cc(Nc2ncc(F)c(Nc3ccc4c(n3)NC(=O)C(C)(C)O4)n2)cc(OC)c1OC [Tamatinib] + C/C(O)=C(\C#N)C(=O)Nc1cc(Br)ccc1Br [LFM-A13] (first compound 0.4 µM, partner dose 2 µM) | 155% | 103% | 157% | 252% | 84.7% | 136%

Reprinted from above (2 entries):
SMILES | cleaved PARP positive nuclei fraction (WM115) | cleaved PARP positive nuclei fraction (WM1716) | cleaved PARP positive nuclei fraction (WM1745) | cleaved PARP positive nuclei fraction (WM3526) | cleaved PARP positive nuclei fraction (WM3619) | cleaved PARP positive nuclei fraction (WM451Lu)
CN(NC(=O)CC(=O)NN(C)C(=S)c1ccccc1)C(=S)c1ccccc1 + O=C(Oc1ccc([N+](=O)[O-])cc1)N1CCC(C(O)(c2ccc3c(c2)OCO3)c2ccc3c(c2)OCO3)CC1 [JZL184] (first compound 0.006 µM, partner dose 1 µM) | 121% | 237% | 231% | 69.5% | 91.3% | 14.9%
CC[C@]1(O)C[C@H]2CN(CCc3c([nH]c4ccccc34)[C@@](C(=O)OC)(c3cc4c(cc3OC)N(C=O)[C@H]3[C@@](O)(C(=O)OC)[C@H](OC(C)=O)[C@]5(CC)C=CCN6CC[C@]43[C@@H]65)C2)C1 [vincristine] + O=C(Oc1ccc([N+](=O)[O-])cc1)N1CCC(C(O)(c2ccc3c(c2)OCO3)c2ccc3c(c2)OCO3)CC1 [JZL184] (first compound 0.0001 µM, partner dose 1 µM) | 2300% | 189% | 104% | 120% | 138% | 215%

Reference: the supplement of paper PMC4604168 (melanoma cell lines)
